{"source": "patent US10306885B2", "about": "“Anthranilic acid ester compound or salt thereof, agricultural and horticultural microbicide comprising the compound, and method for using the microbicide” (Nihon Nohyaku Co., Ltd., priority 2015, dated 2019)", "note": "Some results were stated once for a whole list of compounds, not compound by compound."}
{"system": "wheat powdery mildew fungus Erysiphe graminis", "test": "Test of Control Effect on Wheat Powdery Mildew", "type": "in vivo", "conditions": "200 ppm; foliar application to wheat plants (Nourin No. 61), 10 mL per pot; evaluated 7 days after inoculation"}
{"smiles": "CCS(=O)(=O)c1cc(Cl)ccc1C(=O)N(C(C)=O)c1ccc(OC(F)(F)F)cc1C(=O)OC", "note": "[Compound 5-69]", "control effect (activity level by control rate)": "A (the control rate is 100%)"}
{"smiles": "CCSc1cc(Cl)ccc1C(=O)Nc1ccc(C(F)(C(F)(F)F)C(F)(F)F)cc1C(=O)OC", "note": "[Compound 6-1]", "control effect (activity level by control rate)": "A (the control rate is 100%)"}
{"smiles": "CCS(=O)(=O)c1cc(Cl)ccc1C(=O)Nc1ccc(C(F)(C(F)(F)F)C(F)(F)F)cc1C(=O)OC", "note": "[Compound 6-3]", "control effect (activity level by control rate)": "A (the control rate is 100%)"}
{"smiles": "CCSc1cc(Cl)ccc1C(=O)N(C(C)=O)c1ccc(C(F)(C(F)(F)F)C(F)(F)F)cc1C(=O)OC", "note": "[Compound 6-4]", "control effect (activity level by control rate)": "A (the control rate is 100%)"}
{"smiles": "CCS(=O)(=O)c1cc(Cl)ccc1C(=O)N(C(C)=O)c1ccc(C(F)(C(F)(F)F)C(F)(F)F)cc1C(=O)OC", "note": "[Compound 6-6]", "control effect (activity level by control rate)": "A (the control rate is 100%)"}
{"smiles": "CCSc1cc(Br)ccc1C(=O)Nc1ccc(C(F)(C(F)(F)F)C(F)(F)F)cc1C(=O)OC", "note": "[Compound 6-7]", "control effect (activity level by control rate)": "A (the control rate is 100%)"}
{"smiles": "CCS(=O)(=O)c1cc(Br)ccc1C(=O)Nc1ccc(C(F)(C(F)(F)F)C(F)(F)F)cc1C(=O)OC", "note": "[Compound 6-9]", "control effect (activity level by control rate)": "A (the control rate is 100%)"}
{"smiles": "CCSc1cc(Br)ccc1C(=O)N(C(C)=O)c1ccc(C(F)(C(F)(F)F)C(F)(F)F)cc1C(=O)OC", "note": "[Compound 6-10]", "control effect (activity level by control rate)": "A (the control rate is 100%)"}
{"smiles": "CCS(=O)(=O)c1cc(Br)ccc1C(=O)N(C(C)=O)c1ccc(C(F)(C(F)(F)F)C(F)(F)F)cc1C(=O)OC", "note": "[Compound 6-12]", "control effect (activity level by control rate)": "A (the control rate is 100%)"}
{"smiles": "CCS(=O)(=O)c1cc(C(F)(F)F)ccc1C(=O)N(C(=O)C1CC1)c1ccc(C(F)(C(F)(F)F)C(F)(F)F)cc1C(=O)OC", "note": "[Compound 7-3]", "control effect (activity level by control rate)": "A (the control rate is 100%)"}
{"smiles": "CCS(=O)(=O)c1cc(C(F)(F)F)ccc1C(=O)N(C(=O)C1CCCCC1)c1ccc(C(F)(C(F)(F)F)C(F)(F)F)cc1C(=O)OC", "note": "[Compound 7-9]", "control effect (activity level by control rate)": "A (the control rate is 100%)"}
{"smiles": "CCS(=O)(=O)c1cc(C(F)(F)F)ccc1C(=O)N(C(C)=O)c1ccc(C(F)(C(F)(F)F)C(F)(F)F)cc1C(=O)OCC#N", "note": "[Compound 7-15]", "control effect (activity level by control rate)": "A (the control rate is 100%)"}
{"smiles": "CCCCCCN(C(=O)c1ccc(C(F)(F)F)cc1SCC)c1ccc(C(F)(C(F)(F)F)C(F)(F)F)cc1C(=O)OC", "note": "[Compound 7-19]", "control effect (activity level by control rate)": "A (the control rate is 100%)"}
{"smiles": "CCS(=O)(=O)c1cc(C(F)(F)F)ccc1C(=O)N(C(=O)C(C)C)c1ccc(OC(F)(F)F)cc1C(=O)OC", "note": "[Compound 7-99]", "control effect (activity level by control rate)": "A (the control rate is 100%)"}
{"smiles": "CCSc1cc(C(F)(F)F)ccc1C(=O)Nc1ccc(C(F)(F)F)cc1C(=O)OC", "note": "[Compound 8-175]", "control effect (activity level by control rate)": "A (the control rate is 100%)"}
{"smiles": "CCS(=O)(=O)c1cc(C(F)(F)F)ccc1C(=O)Nc1ccc(C(F)(F)F)cc1C(=O)OC", "note": "[Compound 8-177]", "control effect (activity level by control rate)": "A (the control rate is 100%)"}
{"smiles": "CCSc1cc(C(F)(F)F)ccc1C(=O)N(C(C)=O)c1ccc(C(F)(F)F)cc1C(=O)OC", "note": "[Compound 8-178]", "control effect (activity level by control rate)": "A (the control rate is 100%)"}
{"smiles": "CCS(=O)(=O)c1cc(C(F)(F)F)ccc1C(=O)N(C(C)=O)c1ccc(C(F)(F)F)cc1C(=O)OC", "note": "[Compound 8-180]", "control effect (activity level by control rate)": "A (the control rate is 100%)"}
{"smiles": "CCS(=O)(=O)c1cc(C2CC2)ccc1C(=O)Nc1ccc(C(F)(C(F)(F)F)C(F)(F)F)cc1C(=O)OC", "note": "[Compound 9-142]", "control effect (activity level by control rate)": "A (the control rate is 100%)"}
{"smiles": "CCS(=O)(=O)c1cc(C(F)(F)F)cnc1C(=O)N(C(C)=O)c1ccc(OC(F)(F)F)cc1C(=O)OC", "note": "[Compound 10-18]", "control effect (activity level by control rate)": "A (the control rate is 100%)"}
{"smiles": "CCS(=O)(=O)c1cc(C(F)(F)F)cnc1C(=O)N(C(=O)C(C)C)c1ccc(OC(F)(F)F)cc1C(=O)OC", "note": "[Compound 10-24]", "control effect (activity level by control rate)": "A (the control rate is 100%)"}
